Patent US20050118601A1, “Enhancer sequence of the 5-aminolevulinic acid synthase gene” (priority 2002, published 2005)
Results are given in words; binding and its absence hold for the method and conditions named. Some entries that bind do so weakly or less than the wild type.

Legend:
[1] = target: T1, human 9-cis retinoic acid receptor RXRα (human, UniProt P19793 1-462); test: electrophoretic mobility shift, hA174 probe; no complex with single receptors (FIG. 19A)
T1 construct: also called human RXRα
T1 sequence (looked up): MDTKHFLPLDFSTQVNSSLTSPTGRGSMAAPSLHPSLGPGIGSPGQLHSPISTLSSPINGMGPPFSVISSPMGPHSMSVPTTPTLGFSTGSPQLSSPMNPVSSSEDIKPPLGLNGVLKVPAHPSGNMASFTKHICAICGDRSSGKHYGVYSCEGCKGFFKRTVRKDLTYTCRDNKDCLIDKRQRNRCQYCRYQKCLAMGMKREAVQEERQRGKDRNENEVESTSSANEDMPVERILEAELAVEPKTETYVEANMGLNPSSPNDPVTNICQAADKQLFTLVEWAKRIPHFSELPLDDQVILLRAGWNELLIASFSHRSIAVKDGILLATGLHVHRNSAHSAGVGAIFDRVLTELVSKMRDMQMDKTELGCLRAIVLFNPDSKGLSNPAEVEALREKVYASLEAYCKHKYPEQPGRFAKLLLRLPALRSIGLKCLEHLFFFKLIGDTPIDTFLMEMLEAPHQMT

[2] = target: T1, human 9-cis retinoic acid receptor RXRα; test: electrophoretic mobility shift, hA240 probe; no complex with single receptors (FIG. 19B)
Description: FIG. 19 depicts the results of an electrophoretic mobility shift assay, assaying the ability of human PXR and human CAR to bind to the hA174 and hA240 elements. Binding of these nuclear receptors happens in a heterodimeric state with the human 9-cis retinoic acid receptor RXRα. From expression plasmids encoding human RXRα, […] or CAR, receptor protein was made in vitro using the TNT reticulocyte lysate coupled transcription/translation system (Promega Corp.).
FIG. 19B: Instead of the hA174 fragment, wild-type or DR4-mutant hA240 fragment was radiolabeled and used as probe. Lanes 1-4: Wildtype hA240 was incubated with no receptor (mock transcription/translation) or with RXRα, PXR or CAR alone. No complex is observed using single receptors. Lanes 5 and 7: Wild-type hA240 was incubated with RXRα and PXR or RXRα and CAR, upon which complex formation between radiolabeled probe and protein is observed. Lanes 6 and 8: Same conditions as in lanes 5 and 7, but instead of wild-type probe, radiolabeled hA240DR4(2) mutant was used. No complex is formed.

B1: human constitutive androstane receptor (CAR) (receptor, UniProt Q14994-2 1-348, looked up)
chain: MASREDELRNCVVCGDQATGYHFNALTCEGCKGFFRRTVSKSIGPTCPFAGSCEVSKTQRRHCPACRLQKCLDAGMRKDMILSAEALALRRAKQAQRRAQQTPVQLSKEQEELIRTLLGAHTRHMGTMFEQFVQFRPPAHLFIHHQPLPTLAPVLPLVTHFADINTFMVLQVIKFTKDLPVFRSLPIEDQISLLKGAAVEICHIVLNTTFCLQTQNFLCGPLRYTIEDGARVGFQVEFLELLFHFHGTLRKLQLQEPEYVLLAAMALFSPDRPGVTQRDEIDQLQEEMALTLQSYIKGQQRRPRDRFLYAKLLGLLAELRSINEAYGYQIQHIQGLSAMMPLLQEICS
binding [1]: binds
binding [2]: binds
